From PubChem BioAssay AID2417 (National Center for Advancing Translational Sciences (NCATS), 2010)
Among all 140,000 compounds or so, about 4,300 (3.1%) were called active. Inconclusive means that the source gave no clear call. Such entries were picked first, then a sample of the others.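 How the source made its calls: active means readout at or below -70, meaning at least 70% loss of cells showing the perinucleolar compartment, a nuclear body marking cancer cells; inconclusive means readout between -30 and a set limit; inactive means the rest.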

Assay: High Content Assay for Compounds that inhibit the Assembly of the Perinucleolar Compartment;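 further: plate controls were DMSO wells for no effect and camptothecin positive control wells for full effect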
Conditions: PC3M PTB-GFP, PNC prevalence imaging, 16 h; at 10 µM; stronger effect = lower value
In short: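 Compounds are pinned in duplicate onto adhered PC3M cells stably expressing GFP-tagged PTB and incubated 16 h at 37 C. Cells are then fixed, nuclei stained with Hoechst, and PNC-positive cells counted.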

Row | SMILES | activity change (PNC), negative = inhibition
1 | CCCc1[nH]nc2c1C(c1ccc(Br)s1)C(C#N)=C(N)O2 (stereo unspecified) | inconclusive: -39.8%
2 | CCn1c(=O)cc(OCC(=O)N2CCCC2)c2ccccc21 | inactive: 10.2%
3 | CCn1c2ccccc2c2nc3ccccc3nc21 | inconclusive: -61.4%
4 | Cc1ccc(-c2cc(C(=O)OCC(=O)Nc3cc(C)on3)c3ccccc3n2)c(C)c1 | active: -82.4%
5 | Cc1ccc(-c2nnc(SCC(=O)Nc3ccc(S(=O)(=O)N4CCCCCC4)cc3)o2)cc1 | inconclusive: -36.8%
6 | Cn1cccc1C(=O)Nc1nc(-c2ccccn2)cs1 | inactive: 34.7%
7 | Cc1cc(C)cc(C(=O)NCCn2cc(SCC(=O)N3CCOCC3)c3ccccc32)c1 | inconclusive: -41.4%
8 | COC(=O)c1sccc1-c1ccc(C(=O)Nc2ccccc2)o1 | inconclusive: -34.8%
9 | O=C(Cn1c(C(=O)N2CCc3ccccc3C2)cc2sccc21)c1ccccc1 | inconclusive: -44.4%
10 | O=C(CNC(=O)OCc1ccccc1)NC1CCCCCCC1 | inconclusive: -63.3%
11 | CCCOc1ccc(C(=O)NCC(c2cccs2)N(C)C)cc1OC (stereo unspecified) | inconclusive: -46.2%
12 | COc1ccccc1N1CCN(CC(=O)N2N=CCC2c2ccccc2)CC1 (stereo unspecified) | inconclusive: -49.2%
13 | CCCc1cc(=O)[nH]c(SCC(=O)Nc2nonc2N)n1 | inconclusive: -39.2%
14 | CCSc1nnc2n1C(C)(C)Cc1ccccc1-2 | inconclusive: -77.8%
15 | CC(C)n1c(SCC(=O)c2ccc3c(c2)OCCO3)nc2c1c(=O)n(C)c(=O)n2C | inconclusive: -31.5%
16 | CCCN(CCC)c1ccc(CC(=O)NC(C)Cc2ccccc2)cc1 (stereo unspecified) | inactive: 3.21%
17 | C=CCn1c(-c2ccoc2)n[nH]c1=S | inconclusive: -45.4%
18 | Cc1cc(C(=O)Nc2c(C)nn(Cc3ccccc3)c2C)on1 | inactive: 36%
19 | O=C(COC(=O)Cc1ccc(S(=O)(=O)N2CCOCC2)s1)Nc1ccc2c(c1)OCO2 | inactive: 4.77%
20 | Cc1cccnc1-n1c(CCN2C(=O)c3ccccc3C2=O)nc2ccccc2c1=O | inactive: 52.1%
21 | CCOc1ccc(-n2nc3c(=S)[nH]nc(C)c3c2C)cc1 | inactive: -24.4%
22 | O=C(C1CCC1)N1CCc2cc(S(=O)(=O)NC3CCCC3)ccc21 | inactive: 42.9%
23 | O=c1oc2ccccc2n1CCCOc1ccccc1 | inconclusive: -33.2%

Row | SMILES | activity change (PNC), negative = inhibition
24 | O=C(NC1CCS(=O)(=O)C1)c1ccc(S(=O)(=O)NCC2CCCO2)cc1 (stereo unspecified) | inactive: 23%
25 | COc1ccc(C(=O)/C=C/Nc2ccc([N+](=O)[O-])cc2)cc1 | inactive: 79.9%
26 | CN1CCN(/C=N/c2c(C#N)cnn2-c2ccccc2)CC1 | inconclusive: -35.4%
27 | O=S(=O)(c1ccccc1)N1N=C(c2cccs2)CC1c1ccc(F)cc1 (stereo unspecified) | inconclusive: -49.8%
28 | COC(=O)C1CCN(C(=O)C(C)Oc2ccc(Cl)cc2Cl)CC1 (stereo unspecified) | active: -86.7%
29 | O=C(CCl)NCCCCCCCCCNC(=O)CCl | inconclusive: -31.8%
30 | O=C(Nc1cccnc1)Nc1ccc(Br)cc1Cl | inconclusive: -69.5%
31 | COc1cc(-c2nnc(SCC(=O)c3ccc(C)cc3)o2)cc(OC)c1OC | inconclusive: -38.4%
32 | Cc1cc(=O)oc(C)c1C(=O)N[C@@H]1CCCCNC1=O | inconclusive: -39.4%
33 | CC1CCCCN1S(=O)(=O)c1ccc(S(=O)(=O)NCCc2ccncc2)cc1 (stereo unspecified) | inactive: 329%
34 | Cc1ccc(NC(=O)C2CCCN2S(=O)(=O)c2ccc3c(c2)n(C)c(=O)c(=O)n3C)cc1C (stereo unspecified) | inactive: 60.2%
35 | O=C(CCc1ccc(S(=O)(=O)N2CCOCC2)cc1)N/N=C/c1ccc(O)c(O)c1O | active: -111%
36 | Cc1ccc(NC(=O)C2CCCNC2=O)nc1 (stereo unspecified) | inconclusive: -51.4%
37 | CC1CCCCC1NC(=O)CCCc1nc2ccccc2c(=O)[nH]1 (stereo unspecified) | inconclusive: -46.9%
38 | CN(C)S(=O)(=O)c1ccc(C(=O)OCc2ccc(C#N)cc2)cc1 | inconclusive: -31.9%
39 | Cc1cc2nc(CCN(C(=S)NCC(C)C)C3CCCC3)[nH]c2cc1C | inactive: 11.9%
40 | CCn1c2ccccc2c2cc(NC(=O)c3cccc(OC)c3)ccc21 | inconclusive: -35.3%
41 | COC(=O)[C@H](Cc1ccccc1)NC(=O)[C@@H]1C[C@H]1[C@@H](NC(=O)OCc1ccccc1)c1ccccc1 | inconclusive: -48.3%
42 | CCC(=O)Nc1c(C)nn(-c2ccc(C)c(C)c2)c1C | inconclusive: -50.5%
43 | Cc1cc(OC(=O)C(c2ccccc2)c2ccccc2)c([N+](=O)[O-])c(=O)[nH]1 | inconclusive: -43.2%
44 | Cc1ccc(C(=O)NCc2ccco2)cc1Br | inactive: 13.9%
45 | Cc1ccc(-c2nnn(CC(=O)N(CC(=O)NCc3ccccc3)c3cccc(C)c3C)n2)o1 | inconclusive: -43.5%
46 | NC(=O)[C@@H]1CCCNc2c(I)cc([N+](=O)[O-])cc2C(=O)N[C@@H](CO)C(=O)N[C@@H](Cc2ccc(O)cc2)C(=O)N1 | inconclusive: -78.1%

Row | SMILES | activity change (PNC), negative = inhibition
47 | O=C1CC(c2ccccc2)NC(=O)N1 (stereo unspecified) | active: -81.4%
48 | Cn1c(=O)oc2cc(S(=O)(=O)NCc3ccccc3)ccc21 | inconclusive: -55%
49 | O=S(=O)(c1ccccc1)c1ccccc1/C=N\O | active: -96%
50 | Cc1cc([N+](=O)[O-])ccc1NC(=O)/C=C/c1cccs1 | active: -112%
51 | C/C=C/c1ccc(OCCOc2ccc(C=O)cc2)c(OC)c1 | inactive: -4.45%
52 | O=c1[nH]c2cc3c(cc2cc1C(c1nnnn1CC1CCCO1)N1CCCC1)OCO3 (stereo unspecified) | inactive: 12.5%
53 | CCCCn1ccnc1C(=O)c1cc(S(=O)(=O)N2CCOCC2)ccc1C | inconclusive: -47.9%
54 | CCC(=O)Nc1ccc(C(=O)NNC(=O)COc2cc(C)ccc2C)cc1 | inactive: 23%
55 | COc1ccc(C(=O)N2CCN(C(=O)c3cc(OC)c(OC)c(OC)c3)CC2)cc1 | inactive: 18.2%
56 | CCCc1cc(=O)[nH]c(SCC(=O)c2ccc3c(c2)OCCO3)n1 | inconclusive: -53.2%
57 | N#Cc1c(NC(=S)NC(=O)C2CCCC2)sc2c1CCCCC2 | inconclusive: -47.9%
58 | CC(=O)c1cccc(NC(=O)CN2C(=O)C3C4C=CC(C4)C3C2=O)c1 (stereo unspecified) | inconclusive: -78.1%
59 | CC(C)(C)c1ccccc1NC(=O)c1cccnc1 | inconclusive: -77.2%
60 | N#CCc1ccc(NS(=O)(=O)c2ccc(C3CCCCC3)cc2)cc1 | inactive: -21.4%
61 | O=C(CCCCn1c(=O)[nH]c2ccsc2c1=O)NCC1CCCO1 (stereo unspecified) | inactive: 36.5%
62 | Cc1ccc(NC(=O)C(CC(C)C)NC(N)=O)cc1 (stereo unspecified) | inconclusive: -73%
63 | Cc1ccc(NC(=O)c2sc3nc[nH]c(=O)c3c2C)c(C)c1 | inactive: 50%
64 | Cc1ccc(C)c(NS(=O)(=O)c2cc(C(N)=O)ccc2C)c1 | active: -80.7%
65 | CCOc1ccccc1N1CCN(C(=O)CCCN2C(=O)c3cccc4cccc(c34)C2=O)CC1 | inconclusive: -52.6%
66 | CCOC(=O)CN(C(=O)CSc1nnc(-c2ccncc2)n1CCCOC)c1ccccc1 | inconclusive: -40.5%
67 | O=c1c2c(-c3cccs3)csc2ncn1/N=C/c1ccc(OC(F)F)cc1 | inactive: 113%
68 | NC(=O)c1ccc(NC(=O)c2ccc(CN3CCOCC3)cc2)cc1 | inconclusive: -77.9%
69 | CCCCCCN1C2=NCCN2c2ccccc21 | active: -107%

2 entries picked at random from the list so far:
Row | SMILES | activity change (PNC), negative = inhibition
53 | CCCCn1ccnc1C(=O)c1cc(S(=O)(=O)N2CCOCC2)ccc1C | inconclusive: -47.9%
68 | NC(=O)c1ccc(NC(=O)c2ccc(CN3CCOCC3)cc2)cc1 | inconclusive: -77.9%

(continued)

Row | SMILES | activity change (PNC), negative = inhibition
70 | Cc1nn(-c2ccccc2)c(C)c1/C=N/NC(=O)c1cccs1 | inactive: 0.938%
71 | CC(=O)C1=C(C)NC(SCC(=O)c2ccc(F)cc2)=C(C#N)C1CC(C)C (stereo unspecified) | inconclusive: -55.9%
72 | COc1ccc(-n2c(SC3CCOC3=O)nc3ccccc32)cc1 (stereo unspecified) | inactive: 14.7%
73 | CC(=O)Nc1cccc(OCC(=O)Nc2ccccc2)c1 | inconclusive: -43.8%
74 | Cn1c(-c2ccc(C=O)s2)nc2c3ccccc3c3ccccc3c21 | inactive: 24.1%
75 | Cc1ccc(C(=O)CC2(O)C(=O)N(C)c3ccccc32)o1 (stereo unspecified) | inconclusive: -61.1%
76 | O=C(NCc1ccncc1)c1ccc(Br)o1 | inactive: 5.16%
77 | COc1cc(C(C)=O)ccc1COc1ccc(C(=O)OCC(=O)NC2CCS(=O)(=O)C2)cc1OC (stereo unspecified) | inconclusive: -73.4%
78 | CC(C)CNC(=S)NC(=O)c1ccc(F)cc1 | inconclusive: -51.6%
79 | CC(=O)Oc1ccc2c(c1)c(C(C)=O)c(C)n2C | inconclusive: -49.6%
80 | COc1cc(/C=C2/SC(=S)N(c3ccccc3)C2=O)ccc1Oc1nc(N2CCOCC2)nc(N2CCOCC2)n1 | inconclusive: -30.7%
81 | CC(=O)c1ccc(Oc2cc(-c3ccccc3)nc(-c3ccccc3)n2)cc1 | inactive: 38.9%
82 | O=C(NCc1ccco1)C1CCN(C(=O)c2cc3sccc3n2Cc2ccc(F)cc2)CC1 | inconclusive: -55%
83 | O=C(c1ccc2nc3ccc(Cl)cc3c(=O)n2c1)N1CCOCC1 | inconclusive: -30.3%
84 | CC(=O)NC1C(=O)Nc2c1cccc2C(F)(F)F (stereo unspecified) | inconclusive: -55.7%
85 | Cc1sc(NC(=O)CSc2nnc(C(C)C)n2C)c(C#N)c1C | active: -86.5%
86 | CCOc1cc(-c2nc(-c3ccncc3)no2)cc(OCC)c1OCC | inconclusive: -40.8%
87 | CNC(=S)N1N=C(c2ccc(C)cc2)CC1c1ccc(OC)c(OC)c1 (stereo unspecified) | inconclusive: -71.7%
88 | CCOC(=O)Cn1cnc2c(cnn2-c2ccc(Cl)cc2)c1=O | inconclusive: -52.7%
89 | O=C(COC(=O)c1ccccc1Nc1cccc(C(F)(F)F)c1)NCc1ccco1 | inactive: -1.97%
90 | CCC1(C)Cc2ccccc2-c2nc3n(c(=O)c21)CCCCC3 (stereo unspecified) | inconclusive: -30.9%
91 | CCC(C)NC(=O)c1ccccc1NS(=O)(=O)c1ccc(OC)c(OC)c1 (stereo unspecified) | inactive: 9.45%

Of the compounds above, 4 contain bromine:
Row | SMILES | activity change (PNC), negative = inhibition
1 | CCCc1[nH]nc2c1C(c1ccc(Br)s1)C(C#N)=C(N)O2 (stereo unspecified) | inconclusive: -39.8%
30 | O=C(Nc1cccnc1)Nc1ccc(Br)cc1Cl | inconclusive: -69.5%
44 | Cc1ccc(C(=O)NCc2ccco2)cc1Br | inactive: 13.9%
76 | O=C(NCc1ccncc1)c1ccc(Br)o1 | inactive: 5.16%
